Record: PubChem BioAssay AID1259267 (Sanger Institute, 2017)
Aim: 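Kinase and colorectal-mutated gene knock-downs lethal to GP5D cells alone or with drugs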 (primary screen). Cell system: human GP5D colorectal cancer cells. Reagent: siRNA pool against human genes. Treatment: anchor drugs at low dose: BYL719 1 µM, cetuximab 5 µg/ml, trametinib 10 nM, or DMSO vehicle. Measured: 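Mean replicate viability versus non-targeting pool, given as knock-down-alone robust z-score, DMSO fraction, and synergy with low-dose BYL719, cetuximab or trametinib (1 µM, 5 µg/ml, 10 nM)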. Scale: robust z-score, knock-down alone and viability with DMSO: higher = more viable cells; synergy score with trametinib and synergy score with BYL719 and synergy score with cetuximab: higher = stronger synthetic lethal synergy with drug. Rule for the call: 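Active (essential alone) if knock-down without drug gives robust z-score under -3; drug synergy does not count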. Calls: active = essential alone; inactive = not essential.
The deposit covers 794 reagents; below is a part drawn at random. 9 of them (1.1%) count as active. 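Viability capped at 1; calls reflect loss of viability from knock-down alone, not synergy with drugs.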 A number with no mark means an inactive call. The record does not give: the amount of reagent, the time to read-out.

target gene | robust z-score, knock-down alone | viability with DMSO (fraction of control) | synergy score with trametinib | synergy score with BYL719 | synergy score with cetuximab
MAP3K4 (mitogen-activated protein kinase kinase kinase 4) | 0.489 | 0.931 | -0.0679 | -0.153 | -0.131
MAST4 | 0.817 | 1 | -0.132 | -0.158 | -0.142
MAK (male germ cell associated kinase) | -2.35 | 0.33 | 0.0782 | -0.249 | -0.276
FYN (FYN proto-oncogene, Src family tyrosine kinase) | 0.817 | 1 | 0.187 | -0.0816 | -0.0409
SHPK (sedoheptulokinase) | -1.31 | 0.548 | -0.467 | -0.371 | -0.159
MYLK (myosin light chain kinase) | -0.676 | 0.683 | 0.132 | -0.000179 | -0.0351
MAPK15 (mitogen-activated protein kinase 15) | -1.25 | 0.562 | -0.0695 | -0.278 | -0.141
HIPK2 (homeodomain interacting protein kinase 2) | 0.73 | 0.981 | 0.11 | -0.0893 | -0.0367
CLK4 (CDC like kinase 4) | 0.72 | 0.979 | 0.175 | -0.136 | -0.137
SOX9 (SRY-box transcription factor 9) | 0.144 | 0.857 | -0.0931 | -0.439 | -0.264
CDK17 (cyclin dependent kinase 17) | 0.363 | 0.904 | -0.148 | -0.199 | -0.0671
CDC42BPG (CDC42 binding protein kinase gamma) | 0.817 | 1 | -0.0326 | 0.0238 | -0.053
ANKK1 (ankyrin repeat and kinase domain containing 1) | -0.346 | 0.753 | -0.057 | -0.143 | -0.0326
SLK (STE20 like kinase) | 0.817 | 1 | -0.197 | -0.317 | -0.142
CKM (creatine kinase, M-type) | 0.635 | 0.961 | 0.00277 | -0.385 | -0.00967
CSNK2A2 (casein kinase 2 alpha 2) | -0.197 | 0.785 | 0.118 | -0.207 | 0.116
AURKB (aurora kinase B) | 0.817 | 1 | 0.00119 | -0.0032 | 0.189
RYK (receptor like tyrosine kinase) | 0.817 | 1 | -0.0527 | -0.287 | -0.142
MUSK (muscle associated receptor tyrosine kinase) | -2.49 | 0.299 | -0.115 | -0.192 | -0.127
EPHA4 (EPH receptor A4) | -0.227 | 0.779 | -0.24 | -0.226 | -0.0837
SPHK1 (sphingosine kinase 1) | 0.817 | 1 | 0.213 | -0.00724 | -0.0364
IP6K1 (inositol hexakisphosphate kinase 1) | 0.374 | 0.906 | -0.122 | -0.421 | -0.223
CMPK1 (cytidine/uridine monophosphate kinase 1) | -0.161 | 0.793 | -0.291 | -0.0966 | -0.158
GUCY2D (guanylate cyclase 2D, retinal) | -3.71 (active) | 0.0409 | 0.00622 | -0.226 | 0.0157
MAPKAPK5 (MAPK activated protein kinase 5) | 0.16 | 0.861 | 0.0896 | -0.109 | -0.018
MAP3K3 (mitogen-activated protein kinase kinase kinase 3) | -1.07 | 0.6 | -0.114 | -0.23 | 0.0582
ASPM (assembly factor for spindle microtubules) | 0.274 | 0.885 | 0.0931 | -0.21 | 0.0792
DAPK2 (death associated protein kinase 2) | -0.332 | 0.756 | -0.393 | -0.291 | -0.351
DBF4 (DBF4-CDC7 kinase regulatory subunit) | 0.817 | 1 | 0.0108 | -0.296 | -0.142
MET (MET proto-oncogene, receptor tyrosine kinase) | 0.817 | 1 | 0.0644 | 0.0928 | 0.00288
MAPKAPK2 (MAPK activated protein kinase 2) | 0.0627 | 0.84 | 0.0167 | -0.262 | -0.185
BRAF (B-Raf proto-oncogene, serine/threonine kinase) | -1.61 | 0.485 | 0.0775 | -0.155 | 0.0161
CDK6 (cyclin dependent kinase 6) | 0.429 | 0.918 | -0.0367 | -0.0432 | -0.201
CTCF (CCCTC-binding factor) | 0.029 | 0.833 | 0.25 | -0.0398 | 0.272
DSTYK (dual serine/threonine and tyrosine protein kinase) | 0.736 | 0.983 | 0.263 | 0.174 | -0.114
RTN4 (reticulon 4) | 0.817 | 1 | -0.0966 | -0.329 | -0.142
CHEK1 (checkpoint kinase 1) | -2.19 | 0.363 | -0.0594 | -0.131 | -0.0194
AK7 (adenylate kinase 7) | -0.317 | 0.76 | -0.364 | -0.289 | -0.0875
RIOK3 (RIO kinase 3) | 0.568 | 0.947 | 0.0313 | -0.0927 | -0.156

5 successive reagents already listed, quoted:
target gene | robust z-score, knock-down alone | viability with DMSO (fraction of control) | synergy score with trametinib | synergy score with BYL719 | synergy score with cetuximab
CDC42BPG (CDC42 binding protein kinase gamma) | 0.817 | 1 | -0.0326 | 0.0238 | -0.053
ANKK1 (ankyrin repeat and kinase domain containing 1) | -0.346 | 0.753 | -0.057 | -0.143 | -0.0326
SLK (STE20 like kinase) | 0.817 | 1 | -0.197 | -0.317 | -0.142
CKM (creatine kinase, M-type) | 0.635 | 0.961 | 0.00277 | -0.385 | -0.00967
CSNK2A2 (casein kinase 2 alpha 2) | -0.197 | 0.785 | 0.118 | -0.207 | 0.116

The results go on:
target gene | robust z-score, knock-down alone | viability with DMSO (fraction of control) | synergy score with trametinib | synergy score with BYL719 | synergy score with cetuximab
EPHB3 (EPH receptor B3) | -1.07 | 0.601 | -0.014 | -0.404 | -0.219
GOLGA5 (golgin A5) | 0.817 | 1 | 0.00756 | -0.133 | -0.142
SYK (spleen associated tyrosine kinase) | -1.6 | 0.487 | 0.0175 | -0.2 | -0.0455
PNKP (polynucleotide kinase 3'-phosphatase) | 0.817 | 1 | 0.312 | -0.0651 | -0.126
MYLK2 (myosin light chain kinase 2) | -1.76 | 0.454 | 0.103 | 0.0552 | 0.0441
PRKD1 (protein kinase D1) | 0.817 | 1 | 0.164 | -0.067 | -0.0172
RAF1 (Raf-1 proto-oncogene, serine/threonine kinase) | 0.817 | 1 | -0.172 | 0.0309 | -0.0174
MYLK4 (myosin light chain kinase family member 4) | 0.817 | 1 | -0.174 | -0.126 | -0.142
LTK (leukocyte receptor tyrosine kinase) | 0.817 | 1 | 0.173 | 0.0124 | 0.171
STK38 (serine/threonine kinase 38) | -0.854 | 0.646 | -0.129 | -0.0671 | -0.232
ATM (ATM serine/threonine kinase) | 0.471 | 0.927 | 0.0464 | -0.125 | -0.0845
CKMT1B (creatine kinase, mitochondrial 1B) | 0.817 | 1 | 0.134 | -0.109 | -0.105
PRKCSH (PRKCSH beta subunit of glucosidase II) | 0.633 | 0.961 | -0.228 | -0.326 | -0.175
NEK2 (NIMA related kinase 2) | 0.183 | 0.866 | 0.021 | -0.0402 | -0.127
CDK15 (cyclin dependent kinase 15) | 0.773 | 0.991 | 0.111 | -0.0688 | -0.025
TAOK1 (TAO kinase 1) | 0.817 | 1 | -0.0413 | -0.181 | -0.141
SCYL1 (SCY1 like pseudokinase 1) | 0.817 | 1 | -0.197 | -0.361 | -0.142
PRKG1 (protein kinase cGMP-dependent 1) | -0.777 | 0.662 | -0.468 | -0.577 | -0.334
MARK3 (microtubule affinity regulating kinase 3) | 0.0841 | 0.845 | 0.325 | -0.159 | -0.0264
GUK1 (guanylate kinase 1) | 0.817 | 1 | 0.0255 | -0.124 | 0.0255
ERBB2 (erb-b2 receptor tyrosine kinase 2) | 0.817 | 1 | -0.0484 | -0.361 | -0.0824
EIF2AK2 (eukaryotic translation initiation factor 2 alpha kinase 2) | 0.817 | 1 | -0.0224 | -0.0725 | -0.142
WNK3 (WNK lysine deficient protein kinase 3) | 0.817 | 1 | 0.0642 | -0.208 | -0.0163
PRKAB2 (protein kinase AMP-activated non-catalytic subunit beta 2) | 0.817 | 1 | 0.208 | 0.0666 | 0.138
